PubChem BioAssay AID1159578, Peter MacCallum Cancer Centre – 2015
In all, the deposit lists about 18,000 reagents; below is an unselected part. In the full data, about 1,030 (5.7%) were called active. 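Inactive calls also include pools with fewer than 3300 nuclei, whose migration was not assessed.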 The raw values are shown without normalisation. Entries without a mark were called inactive. Further read-outs or replicates are left out here. Reagent sequences are not shown.

- Test: 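Genome-wide hunt for genes controlling movement of lymphatic endothelial cells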 (primary screen)
- System: human lymphatic endothelial cells
- Reagents: siRNA pool against human genes, 40 nM
- Timing: 48 h after transfection
- Detection: 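High-content imaging of dye-stained cells in a scratch assay measures filled wound area and nuclei per well; duplicate means given as ratio to mock and robust z-score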
- Direction: migration robust z-score: higher = faster migration into the scratch; nuclei per well: higher = more cells in the well
- Call rule: 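Pools averaging fewer than 3300 nuclei are never called; remaining pools count as changed when migration robust z lies outside -2 to 2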
- Calls: active = migration changed; inactive = no migration change, or too few cells

Gene | migration robust z-score | nuclei per well, duplicate mean
KIAA1755 | -0.52 | 6367
ME1 | 0.88 | 6254
SLC39A7 | -0.68 | 4791
TAB2 | 0.9 | 6808
ZBTB5 | -0.28 | 6014
PFN3 | -3.21 | 1617
EEF2KMT | -1.27 | 5421
NKAIN1 | 0.17 | 5644
HELZ2 | 1.12 | 5798
CDYL | -0.29 | 5218
RICTOR | 0.78 | 6139
SCNM1 | -0.46 | 5488
SPATA46 | -2.71 (active) | 4385
PBX3 | 0.72 | 5775
SYNC | -1.18 | 3847
AMY2B | 0.18 | 5708
ROPN1 | -0.82 | 5627
LUZP2 | -0.19 | 6368
INPP4A | -0.08 | 6146
TPST1 | 0.29 | 4168
IQGAP2 | -1.32 | 6167
SKIL | 1.5 | 5479
HADHA | -0.62 | 6835
TRPA1 | -1.32 | 4664
TKTL2 | -1.17 | 6101
CALML3 | 0.58 | 5682
CSF2 | 0.78 | 4708
VANGL2 | -0.74 | 5186
NSF | 0.52 | 5580
EMC1 | 0.57 | 5538
G2E3 | 0.36 | 6760
NOS1 | 0.03 | 4725
MOB3C | -1.17 | 6208
YY2 | 1.46 | 5918
GEMIN6 | 0.06 | 5234
FTMT | 3.09 (active) | 6532
GABPA | 0.26 | 5587
FRRS1 | -1.87 | 5462
SLITRK3 | 0.76 | 6384
MLN | 0.89 | 4306
TBC1D32 | -0.36 | 6433
SEC61A1 | 0.79 | 5670
RASSF4 | 0.82 | 4142

Ordered by “nuclei per well, duplicate mean” (ascending): 6 of the entries above.
Gene | migration robust z-score | nuclei per well, duplicate mean
TPST1 | 0.29 | 4168
TRPA1 | -1.32 | 4664
SKIL | 1.5 | 5479
INPP4A | -0.08 | 6146
IQGAP2 | -1.32 | 6167
HADHA | -0.62 | 6835

Next records:
Gene | migration robust z-score | nuclei per well, duplicate mean
OR4D6 | -0.39 | 5348
H2AC21 | -0.04 | 6374
SAXO2 | 1.7 | 6578
CCN5 | -1.19 | 6282
C1orf210 | -1.13 | 5926
POU4F2 | 1.38 | 7378
AKR7A2 | -0.16 | 6430
NELFB | -1.23 | 3710
NR1I3 | -0.34 | 4920
ESF1 | -1.07 | 6139
NAA10 | -1.92 | 5798
GTF2H5 | -0.56 | 6101
AARSD1 | -0.65 | 4856
SOX11 | 1.04 | 6038
P2RY13 | 0.57 | 5989
RIMKLB | -0.27 | 6368
CLVS1 | -0.67 | 5741
TMEM245 | 0.26 | 6541
PEPD | 0.21 | 5539
ZMYM6 | -0.62 | 4363
LYPD5 | -1.9 | 6648
TMEM95 | -0.66 | 6438
U2AF2 | -0.14 | 4884
SH3GL2 | -0.1 | 6867
GFRA3 | -0.02 | 5845
NFKBIL1 | -0.16 | 6680
TUSC2 | 0.64 | 5751
RPL8 | -0.52 | 3770
ZNF791 | -0.86 | 5656
MUC7 | -0.45 | 4871
